Test results as given in PubChem BioAssay AID588497 (NMMLSC, 2011).
In all, about 360,000 compounds went through this assay and about 780 (0.22%) were called active. Inconclusive results, whose numbers are uncertain, are shown with a selection of clear calls. No stated cut-off is given here; in the data, active means inhibition above about 35% (passing the limit was not always enough); inconclusive means no clear call, values can overlap the other calls.

Test system: Botulinum neurotoxin type F light chain protease (Clostridium botulinum)
Experiment: BoNT/F light chain protease inhibitors, primary screen, biochemical, flow cytometry, MLPCN library (AID 588497); further: plate controls were buffer without enzyme for full effect and enzyme alone for no effect
Conditions: Multiplex microsphere protease cleavage assay, at 10 µM, hits give high values

Structure (SMILES) | inhibition
COc1ccccc1C(=O)NNC(=O)C(=O)Nc1ccc(C)cc1 | inactive: 5%
CCCCC(=O)Nc1ccc(N2CCN(C(=O)CC)CC2)cc1 | inactive: 7.5%
COc1ccc2c(Cl)c(C(=O)NCCc3ccc(S(N)(=O)=O)cc3)sc2c1 | inconclusive: 5.7%
O=c1c2c(-c3ccc([N+](=O)[O-])cc3)csc2nc2n1CCC2 | inactive: -3.7%
Cc1ccc(C(=O)N2CCN(C(=O)C3CCCO3)CC2)cc1 (configuration not stated) | inactive: -5.4%
COc1cnn(-c2ccc([N+](=O)[O-])cc2)c(=O)c1Cl | inconclusive: -5.7%
COc1ccc(-c2nc(N)c(C#N)c(-c3cccnc3)c2C)cc1 | inconclusive: 75.7%
O=C(Nc1ccc(Br)cc1)N1CCCCCCC1 | inactive: -2.7%
Cc1cccc(NC(=S)NNC(=O)c2cccc([N+](=O)[O-])c2)c1 | inconclusive: -9.5%
O=C(Cc1ccc(Br)cc1)N1CCOCC1 | inconclusive: 14.3%
COc1ccccc1CN1CCNC(=O)C1CC(=O)NCc1c(C)n[nH]c1C (configuration not stated) | active: 41.1%
COc1ccccc1OCC(=O)N1CCN(C(=O)COc2ccccc2OC)CC1 | inactive: -25.7%
O=C(N/N=C/c1cccc(Cl)c1)C(c1ccncc1)N1CCOCC1 (configuration not stated) | inconclusive: -8.8%
Cc1cccc2cc(COC(=O)c3cccnc3)c(=O)[nH]c12 | inconclusive: -11.3%
CC(C)(C)OC(=O)N1CCN(C(=O)c2ncn3c2c(=O)[nH]c2ccccc23)CC1 | inactive: -0.6%
Cc1ccc(NC(=O)CN2C(=O)NC3(CCc4ccccc43)C2=O)cc1Cl (configuration not stated) | inconclusive: -2.7%
Cc1ccc(NC(=O)CNC(=O)c2ccc(C)o2)cc1 | inconclusive: -1.7%
N#C/C(=C\c1cccnc1)c1ccc([N+](=O)[O-])cc1 | inconclusive: -26.7%
CN(C)CCCN1CC(=O)N2[C@@H](Cc3c([nH]c4ccccc34)C2(C)C)C1=O | inconclusive: -1.3%
O=C1CCC2(CCCC2)c2ccccc21 | inactive: 1.5%
CCCCC1(C(=O)OC)NC(c2ccc(O)cc2)C2C(=O)N(c3ccccc3)C(=O)C21 (configuration not stated) | inconclusive: -27.2%
CC(C)c1ccc(OCC(=O)NN2C(=O)c3ccccc3C2=O)c(Br)c1 | inconclusive: 5.4%
COc1ccc(/C(N)=N/OC(=O)/C=C/c2ccccc2)cc1 | active: 61.7%

Structure (SMILES) | inhibition
COCCCNC(=O)c1ccc(OC)c(OC2CCN(C(C)C)CC2)c1 | inconclusive: -23.9%
Cc1cc(C)c(C#N)c(N2CCCC(C(N)=O)C2)n1 (configuration not stated) | inconclusive: 3%
Cc1ccc(-c2nnc(NC(=O)C3=COCCO3)o2)c(C)c1 | inconclusive: -8.1%
COc1ccc(/C=N/NC(=O)c2cccnc2)cc1CN1CCOCC1 | inconclusive: -50.3%
CCCC1(C(=O)OC)NC(c2ccc(OC)cc2OC)C2C(=O)N(c3cccc(C(C)=O)c3)C(=O)C21 (configuration not stated) | inactive: 14.8%
CC(OC(=O)C1CC(=O)N(Cc2ccccc2)C1)C(=O)Nc1ccc(F)cc1Cl (configuration not stated) | inconclusive: 1.1%
Cc1cc(C)c2c(c1)/C(=C/C(=O)c1ccc(Br)s1)C(=O)N2 | inactive: -8.4%
CN(CCOC(=O)c1ccc2c(c1)OCO2)C(C)(C)C | inactive: 1.3%
O=C(Nc1ccc(Nc2ccccc2)cc1)c1ccc(Br)cc1 | inconclusive: -9.7%
O=C(Nc1ccc2nc(-c3cccs3)c(-c3cccs3)nc2c1)NC1CC1 | active: 36.2%
CC1CCCCC1NC(=O)COC(=O)c1ccc(N(C)C)cc1 (configuration not stated) | inconclusive: 25.3%
CC(NC(=O)c1ccc(Cl)c(Cl)c1)c1ccc(-c2ccccc2)cc1 (configuration not stated) | inconclusive: -8.1%
O=c1oc2cc([N+](=O)[O-])ccc2nc1/C=C(\O)c1cccc(Br)c1 | inconclusive: 29.8%
COc1cc(NC(=O)c2ccc3snnc3c2)cc(OC)c1 | inconclusive: -45.7%
O=C1C(=O)N(CCCc2ccccc2)c2ccccc21 | inconclusive: 7.7%
N/C(=N\OC(=O)COc1ccccc1Cl)c1ccc(Cl)cc1 | inconclusive: 19.6%
CN(CC(=O)Nc1ccncc1)S(=O)(=O)c1ccc(Br)cc1 | inactive: 3.1%
Cn1c(-c2ccc3c(c2)OCO3)cnc1N | inactive: -9.2%
COc1cccc(N2CCN(C(=O)c3cc4c(s3)-c3ccccc3OC4)CC2)c1 | inactive: -3.2%
COc1cc2c3nnc(-c4ccc(F)cc4)c-3cn(Cc3ccc(F)cc3)c2cc1OC | inactive: -3.5%
CCOC(=O)N1CCC(NC(=O)Cc2ccccc2)CC1 | inconclusive: 29.5%
CC12C(=O)N(c3ccccc3)C(=O)C1C(c1ccccc1)N1CCCN12 (configuration not stated) | inconclusive: -30.3%
CCOC(=O)Cc1csc(NC(=O)CCCc2ccccc2)n1 | inconclusive: -16.9%

Structure (SMILES) | inhibition
O=C(Oc1ccc(/C=N/NC(=O)c2ccco2)cc1)c1ccccc1 | inactive: 1.8%
COc1ccc(C(=O)CC(=O)c2ccc(OC)cc2)cc1 | inconclusive: -19.1%
CC(C)=NN1C(=O)c2ccccc2NC1(C)C | inconclusive: -41.1%
CC(C)C[C@H]1CNC(=O)C(=O)N1C[C@@H]1CCCN1C[C@H](Cc1ccc(O)cc1)N1C[C@H](Cc2ccccc2)N(CC2CCCCC2)C(=O)C1=O | inactive: -2.4%
Cc1ccccc1NC(=O)C(C)OC(=O)CCC(=O)c1ccccc1 (configuration not stated) | inactive: 6.4%
CCOc1ccc(NC(=O)C2C3CC/C=C\CCC32)cc1 (configuration not stated) | inconclusive: 24.4%
CC(C)C[C@@]12C(=O)N(c3cccc(F)c3)C(=O)N1[C@H](c1ccc(F)cc1)[C@@H]1C(=O)N(C3CCCCC3)C(=O)[C@@H]12 | inactive: -8.7%
Cc1ccc(C(=O)O/N=C\c2ccc(N3CCCCC3)c([N+](=O)[O-])c2)cc1 | inactive: 0.8%
COc1cccc(-c2nc3ccc(C(=O)NC(C)Cc4cccnc4)cc3o2)c1 (configuration not stated) | inconclusive: 8.4%
CCOc1ccc(C(=O)NCC2CCN(CC3CCCCC3)CC2)cc1 | inconclusive: -25.6%
O=C(/C=C/c1cccs1)N1CCCC1 | inconclusive: -2.3%
O=C(Nc1cccc(-c2nc3ccccc3[nH]2)c1)c1ccco1 | inactive: -7.1%
OCc1ccc(N=Nc2ccccc2)cc1 | inconclusive: -1.1%
Cc1nc(NC(=O)C2CC2)sc1C(=O)Nc1ccccc1 | inconclusive: 20.8%
CC(C)(C)c1ccc(C(=O)Nc2ccc(S(=O)(=O)Nc3cnc4ccccc4n3)cc2)cc1 | inconclusive: 14.2%
COCCCn1nnnc1SCC(=O)Nc1nc(C)c(C)s1 | inconclusive: 13.2%
Cc1ccc(CSc2nnc(-c3cnccn3)n2C)cc1 | inconclusive: -33.3%
COc1ccc(/C=N/NC(=O)CCC(=O)Nc2ccc(F)cc2)c(OC)c1 | inconclusive: 5.9%
Fc1ccc(C2=Nn3c(nnc3-c3n[nH]c4c3CCC4)SC2)cc1 | inconclusive: 18.4%
COCCNc1nc(N)c([N+](=O)[O-])c(NCc2ccccc2)n1 | inconclusive: 22.2%
C/C(=N/NC(=O)c1cn(-c2cccc(C)n2)cn1)c1ccc(C)cc1 | inactive: -43.6%
CC(=O)NNC(=O)c1[nH]c2ccc(Cl)cc2c1-c1ccccc1 | inconclusive: 106%
CCCOc1ccc(C(=O)OCCN2CCCCC2)c(O)c1 | inconclusive: -121%

Quoted from the listing:
`O=C(Nc1cccc(-c2nc3ccccc3[nH]2)c1)c1ccco1` – inhibition: inactive: -7.1%
`Cc1nc(NC(=O)C2CC2)sc1C(=O)Nc1ccccc1` – inhibition: inconclusive: 20.8%

Continued.

Structure (SMILES) | inhibition
Cc1oc(-c2ccccc2)cc1C(=O)NCc1ccncc1 | inconclusive: -94.6%
N/C(CCS(=O)(=O)c1ccc(Cl)cc1)=N\OC(=O)c1ccccc1Cl | inconclusive: -137%
Cc1nn(Cc2ccc(C(=O)NN)cc2)c(C)c1Cl | inconclusive: -2.6%
CC(C)Oc1cc(F)ccc1-c1cc(C(=O)NCc2cccs2)[nH]n1 | inactive: 1.2%
O=C(Nc1ccccc1Cl)C1Cc2ccccc2O/C1=N\O (configuration not stated) | inconclusive: -18.1%
Cc1noc(/C=C/c2ccccn2)c1[N+](=O)[O-] | inconclusive: -6.8%
COc1cccc(C(=O)CC(=O)C(=O)Nc2ccc([N+](=O)[O-])cc2C)c1 | inconclusive: 21.8%
O=C(NCc1cccs1)C(=O)NCC(c1ccco1)N1CCN(c2ccccc2F)CC1 (configuration not stated) | inactive: 0.1%
Cc1cc(N2CCN(C(=O)c3cccs3)CC2)c(F)cc1[N+](=O)[O-] | inconclusive: -30.3%
CCOC(=O)c1cc(NC(=O)C2C3C=CC(O3)C2C(=O)O)cc(C(=O)OCC)c1 (configuration not stated) | inactive: -13.4%
COCC(C)n1c(SCC(=O)Nc2cccnc2Cl)nc2ccccc2c1=O (configuration not stated) | inactive: -2.6%
CN(CC(=O)Nc1ccc(F)c(F)c1F)C(=O)c1cc(S(=O)(=O)N(C)C)ccc1N1CCCC1 | inactive: -3%
O=S1(=O)CC(O)C(N(CCO)C(=S)Nc2ccccc2)C1 (configuration not stated) | inconclusive: 24.8%
COCCCn1c(C23CC4CC(CC(C4)C2)C3)n[nH]c1=S | inconclusive: 18.4%
Clc1ccc(Cn2ccc(-c3ccc4c(c3)OCO4)n2)cc1Cl | inactive: -2%
COc1cc2ccccc2cc1C(=O)N1CCN(C(C)=O)CC1 | inactive: -9.1%
CCOc1cccc(-n2nnnc2-c2ccc(OC)cc2)c1 | inconclusive: -7.7%
Cc1ccc(C(=O)N/N=C\c2ccccn2)cn1 | inconclusive: 93.3%
O=C(O)C1=CC2c3ccccc3C1c1ccccc12 | inconclusive: 8.3%
O=C(NCc1cccnc1)C1c2ccccc2C(=O)N1C1CCCC1 (configuration not stated) | inactive: -2.1%
O=C1CC(=O)N(c2ccc(Cl)cc2)C(=O)N1 | inconclusive: 24.7%
N/C(CN1CCCC1=O)=N\O | inactive: -3.8%
CCOc1ccc(/C(O)=C2/C(=O)C(=O)N(CCN(CC)CC)C2c2cccs2)cc1 (configuration not stated) | inconclusive: 24.8%

Fetched one by one from the list above (two):
Structure (SMILES) | inhibition
O=C(O)C1=CC2c3ccccc3C1c1ccccc12 | inconclusive: 8.3%
CCOc1cccc(-n2nnnc2-c2ccc(OC)cc2)c1 | inconclusive: -7.7%
